# The other results are listed elsewhere or left out. The main result of the screen is listed elsewhere. These columns were measured beside it and carry no call. The list favours compounds with an active or inconclusive main result. The note in brackets gives the kind of curve behind each potency; many fits are weak.
# Experiment: qHTS Assay for Lipid Storage Modulators in Drosophila S3 Cells;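 for cell number change: cells counted by Cell Tracker Red CMTPX staining in the red channel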
# Conditions: BODIPY lipid droplet fluorescence, 18-24 h; for cell number change: measured here: cell count max response, cells fed with added oleic acid
# In short: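 Drosophila S3 cells got compounds at several concentrations plus oleic acid (400 uM solution). Laser-scanning cytometry with 488 nm excitation read lipid droplets at 500-530 nm and cells at 575-640 nm. Percent activity was relative to 20 uM Triacsin C.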
# [1] = measured here: cell number channel AC50, cells fed with added oleic acid
# [2] = measured here: lipid fluorescence (Fed channel) AC50, cells fed with added oleic acid
Compound,AC50 [1],cell number change,AC50 [2]
Cc1ccc(NC(=O)CSCC(=O)Nc2sccc2C#N)cc1,"3.66 µM [falling, single point]",,
O=C(Nc1ncc2c(n1)-c1ccccc1OC2)c1cccc([N+](=O)[O-])c1,"0.058 µM [rising, full curve, poor fit]",19.3%,
COc1cccc(-n2nnc3c(=O)n(CC(=O)N4CCCc5ccccc54)cnc32)c1,"23.1 µM [rising, single point]",38.7%,
CC(C)(C)OC(=O)N1CCN(C(=O)c2ncn(Cc3ccccc3)c2C(=O)N2CCN(C(=O)OC(C)(C)C)CC2)CC1,"0.103 µM [falling, full curve, poor fit]",-31.5%,"0.116 µM [falling, full curve, poor fit]"
CC(C)c1ccc(/C=N/NC(=O)c2ccc(-n3cnnn3)cc2)cc1,,23%,
CC(=O)c1cccc(NC(=O)C2=CC(c3ccco3)=NS(=O)(=O)N2C)c1,,,"29.1 µM [rising, single point]"
CCOC(=O)Cc1csc(NC(=O)CSc2cc(Cl)ccc2Cl)n1,"20.6 µM [rising, single point]",40.8%,"20.6 µM [rising, partial curve]"
COc1cccc(NC(=O)CSc2nncn2N)c1,,-2.51%,"18.4 µM [falling, single point]"
Cc1cc(N2CCN(c3ccccn3)CC2)n2cc(-c3ccccc3)nc2n1,"0.731 µM [rising, single point]",,
CN(CCOc1ccc(-c2ccn(S(=O)(=O)c3c(Cl)cccc3Cl)n2)cc1)c1ccccn1,,8.98%,"0.517 µM [rising, single point]"
CCN(C(=O)c1cn(C)c(=O)c2cc(OC)c(OC)cc12)c1cc(C)ccc1C,,4.95%,"29.1 µM [falling, single point]"
COc1ccccc1C(=O)O/N=C(\N)c1ccccc1Cl,,3.81%,"0.82 µM [rising, full curve, poor fit]"
CC12CCC(C(=O)N(c3ccccn3)c3ccccn3)(OC1=O)C2(C)C (stereo unspecified),,15.3%,"23.1 µM [falling, partial curve]"
O=C(CSCc1ccc(Cl)cc1)Nc1ccc2c(c1)OCCO2,,7.73%,"0.291 µM [rising, partial curve, poor fit]"
COc1cc([N+](=O)[O-])ccc1NC(=O)NCc1ccccn1,,4.96%,
CN(C(=O)CS(=O)(=O)c1cccc(Cl)c1)c1ccccc1,,-18.8%,
CCCCCn1c(C)c2c(OCC)cccc(=O)c2c1C,"6.51 µM [rising, partial curve]",39.8%,"2.06 µM [rising, partial curve, poor fit]"
COc1ccc(C(=O)Nc2ccc(S(=O)(=O)NC(C)C)cc2)cc1,"1.46 µM [rising, full curve]",50.7%,"2.06 µM [rising, partial curve]"
Cc1ccc(NC(=O)c2sc3nc(N)c(C#N)cc3c2N)cc1,"11.6 µM [falling, single point]",-33.8%,"10.3 µM [falling, single point]"
Cc1ccc(C(=O)O)cc1-n1c(=O)n(Cc2ccccc2)c(=O)c2[nH]cnc21,,-26.4%,

# In the list so far, these contain a thiophene ring, fused or not.
Compound,AC50 [1],cell number change,AC50 [2]
Cc1ccc(NC(=O)CSCC(=O)Nc2sccc2C#N)cc1,"3.66 µM [falling, single point]",,
Cc1ccc(NC(=O)c2sc3nc(N)c(C#N)cc3c2N)cc1,"11.6 µM [falling, single point]",-33.8%,"10.3 µM [falling, single point]"

# Next structures follow.

Compound,AC50 [1],cell number change,AC50 [2]
CCC(=O)/C=C1\Sc2ccccc2N1CC,,17.8%,"9.2 µM [rising, partial curve, poor fit]"
Brc1ccc(-c2cn3ccccc3n2)s1,"4.11 µM [rising, partial curve]",58.9%,"2.31 µM [rising, partial curve]"
COC(=O)CC1=C(C(=O)OC)C(c2cc(OC)c(OC)cc2OC)C(C#N)=C(N)O1 (stereo unspecified),,12.7%,"0.0326 µM [rising, full curve, poor fit]"
CC1CC(C)CN(C(=O)c2ccc(NS(=O)(=O)c3ccc4[nH]c(=O)[nH]c4c3)cc2)C1 (stereo unspecified),,16.8%,
Cc1cc(Cl)ccc1OC(C)C(=O)OCC(=O)Nc1ccc2[nH]c(=O)[nH]c2c1 (stereo unspecified),"29.1 µM [falling, single point]",-36.7%,"0.0058 µM [rising, full curve, poor fit]"
O=C(O)c1ccccc1C(=O)NC1CCCc2ccccc21 (stereo unspecified),,-12.1%,
O=C(NCCCn1ccnc1)c1ccco1,,-5.7%,"25.9 µM [falling, partial curve]"
Cc1cc(C(=O)NNC(=O)c2c(-c3c(Cl)cccc3Cl)noc2C)no1,,10%,"0.13 µM [rising, full curve, poor fit]"
O=S(=O)(Nc1ccccc1Cl)c1ccc(NS(=O)(=O)c2cccs2)cc1,,14.4%,
CN(Cc1ccccc1)C(=O)c1ccccc1NC(=O)c1ccccc1,,9.1%,"0.0058 µM [falling, full curve, poor fit]"
Cc1nnc(NC(=O)Cn2c(=O)sc3ccccc32)s1,"5.8 µM [falling, partial curve, poor fit]",-70.2%,"10.3 µM [falling, partial curve]"
C=CCOc1cccc(C2C(C(=O)c3cc4ccccc4o3)=C(O)C(=O)N2c2cc(C)on2)c1 (stereo unspecified),,8.66%,
CCC(C(=O)NCCCN1CC(C)CC(C)C1)n1nc(C)c2sc3ccccc3c2c1=O (stereo unspecified),,-3.54%,"29.1 µM [rising, single point]"
CS(=O)(=O)c1ccc(Cl)c(NC(=O)c2cccc(N3C(=O)CCC3=O)c2)c1,,14.7%,"0.13 µM [falling, full curve, poor fit]"
COCCNC(=O)COc1ccc(C)cc1C,,2.38%,
COc1ccc(Nc2oc(COc3ccccc3OC)nc2C#N)cc1,,18.6%,"1.84 µM [rising, partial curve]"
CCCCC(=O)Nc1nc(-c2ccc(S(=O)(=O)N3CCOCC3)cc2)cs1,,4.8%,"16.4 µM [falling, single point]"
O=C(NC1=NCCS1)[C@H](Cc1ccccc1)N1C(=O)c2ccccc2C1=O,,23.8%,"0.82 µM [falling, full curve]"
COc1ccc(CNC(=O)CNC(=O)c2c(C)nn(C)c2Cl)cc1,,,"18.4 µM [falling, single point]"
CCOC(=O)c1nn(-c2ccc(F)cc2)c(=O)c(C#N)c1C,,-15.8%,"29.1 µM [rising, single point]"

Compound,AC50 [1],cell number change,AC50 [2]
COc1nc2c(s1)C(=O)NCCC2,,-22.7%,"18.4 µM [falling, partial curve]"
CC(=O)c1ccc(S(=O)(=O)N2CCN(c3nc(-c4cccnc4)nc4ccccc34)CC2)cc1,,-4.79%,"6.51 µM [rising, partial curve, poor fit]"
CN(CC(=O)Nc1cccc(F)c1)C(=O)c1ccc(NC2CC2)c([N+](=O)[O-])c1,,3.64%,"0.58 µM [rising, full curve, poor fit]"
CCOc1ccccc1-n1c(=O)c2ccccc2c2ccccc2c1=O,"2.31 µM [falling, partial curve]",-36.4%,"1.64 µM [falling, partial curve]"
CN(CC(=O)Nc1cccc(F)c1)C(=O)C1CCN(C(=O)c2ccc(Cl)cc2)CC1,,8.82%,
O=S(=O)(Nc1ccc2oc(-c3ccccc3)nc2c1)c1ccccc1,"10.3 µM [falling, single point]",-43.7%,
O=c1c2c(nc3n1CCS3)c1cc(F)ccc1n2Cc1cc(=O)n2cc(Cl)ccc2n1,,14.3%,"6.51 µM [rising, partial curve, poor fit]"
COc1ccc(CN2CCN(Cc3cc4ccccc4o3)CC2CCO)cc1C (stereo unspecified),,-19.2%,"20.6 µM [falling, single point]"
Cn1c(=O)cc(SCC(=O)Nc2cccnc2)c2ccccc21,"3.66 µM [falling, full curve]",-32.4%,"5.8 µM [falling, single point]"
CCOc1ccccc1C(=O)Nc1ccc(S(=O)(=O)N2CCOCC2)cc1,,-6.86%,"3.26 µM [rising, partial curve]"
COc1ccc(-n2nc3c(N4CCC(C(=O)NCc5cccc(C)c5)CC4)nnc(C)c3c2C)cc1,"1.46 µM [rising, full curve, poor fit]",-6.46%,"29.1 µM [falling, single point]"
COc1ccc(C)cc1N(CC(=O)N1CCc2ccccc2C1)S(C)(=O)=O,"14.6 µM [falling, partial curve, poor fit]",-33.7%,
CCn1c(/C=N/c2nc3ccccc3n2C)nc2ccccc21,,8.93%,"18.4 µM [rising, single point]"
O=C(Nc1ccc(Cl)cc1)N1CCc2[nH]c3ccccc3c2C1,,-11.3%,"29.1 µM [falling, single point]"
Cc1cccc(N2CCN(C(=O)CSc3nc4ccccc4nc3N3CC(C)OC(C)C3)CC2)c1C (stereo unspecified),"23.1 µM [rising, partial curve, poor fit]",38.3%,"29.1 µM [rising, partial curve]"
c1cncc(-c2nc3cc4ccccc4cc3[nH]2)c1,,13.8%,"20.6 µM [falling, single point]"
COc1cc(C#Cc2c(-c3cncn3C)n(C)c3ccc(-c4ccc(OC)nc4)cc23)cc(OC)c1,"1.16 µM [falling, single point]",-2.91%,
COc1ccccc1C(=O)NC(=S)Nc1ccc(S(=O)(=O)N2CCN(C)CC2)cc1,,-12%,"0.58 µM [rising, partial curve]"
Cc1cc(-c2n[nH]c(=S)n2/N=C/c2ccccc2[N+](=O)[O-])n[nH]1,,-20.1%,"0.58 µM [rising, full curve, poor fit]"
